Source: publication doi:10.1101/2022.10.17.512556 (bioRxiv, 2022)
No constants are given. Whether binding was seen depends on the method and setting.

The chains behind the UniProt entries cited, without tags or fusion partners. Where a name states a change or a piece, a line headed by the entry shows the natural chain unless it says otherwise. Residues count along the entry.
UniProt Q12306, 13-98: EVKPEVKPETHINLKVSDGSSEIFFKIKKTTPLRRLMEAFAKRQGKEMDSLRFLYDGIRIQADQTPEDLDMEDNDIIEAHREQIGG
UniProt P05231, 30-212: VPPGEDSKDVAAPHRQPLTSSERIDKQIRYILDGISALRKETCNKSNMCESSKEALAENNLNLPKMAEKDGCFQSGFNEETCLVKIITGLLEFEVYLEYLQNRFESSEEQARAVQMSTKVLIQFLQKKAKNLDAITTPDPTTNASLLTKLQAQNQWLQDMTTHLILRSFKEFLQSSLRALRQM

Target: T1, S210A DegP (E. coli) (UniProt P0C0V0)
T1 sequence: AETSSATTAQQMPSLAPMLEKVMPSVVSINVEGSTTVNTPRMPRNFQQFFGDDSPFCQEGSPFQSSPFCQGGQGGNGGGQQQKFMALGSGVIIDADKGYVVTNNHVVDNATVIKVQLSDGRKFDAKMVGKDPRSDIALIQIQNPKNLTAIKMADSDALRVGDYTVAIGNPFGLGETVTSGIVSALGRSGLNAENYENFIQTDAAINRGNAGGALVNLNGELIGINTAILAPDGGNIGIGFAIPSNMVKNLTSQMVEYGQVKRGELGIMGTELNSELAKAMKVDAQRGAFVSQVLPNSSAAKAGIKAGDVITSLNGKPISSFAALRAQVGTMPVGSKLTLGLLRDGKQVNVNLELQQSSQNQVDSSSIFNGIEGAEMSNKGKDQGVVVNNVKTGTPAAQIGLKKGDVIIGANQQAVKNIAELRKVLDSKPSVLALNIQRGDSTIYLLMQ
Assay: dynamic light scattering

Substance | binding
His-SUMO (from UniProt Q12306 13-98) | no binding
IL6 (from UniProt P05231 30-212) | no binding
